Source: paper PMC11827430
No constants are given. Whether binding was seen depends on the method and setting. Binding seen in cells or lysates may run through a third protein. Some entries that bind do so weakly or less than the wild type.

The chains behind the UniProt entries cited, without tags or fusion partners.
UniProt Q9Y6K9: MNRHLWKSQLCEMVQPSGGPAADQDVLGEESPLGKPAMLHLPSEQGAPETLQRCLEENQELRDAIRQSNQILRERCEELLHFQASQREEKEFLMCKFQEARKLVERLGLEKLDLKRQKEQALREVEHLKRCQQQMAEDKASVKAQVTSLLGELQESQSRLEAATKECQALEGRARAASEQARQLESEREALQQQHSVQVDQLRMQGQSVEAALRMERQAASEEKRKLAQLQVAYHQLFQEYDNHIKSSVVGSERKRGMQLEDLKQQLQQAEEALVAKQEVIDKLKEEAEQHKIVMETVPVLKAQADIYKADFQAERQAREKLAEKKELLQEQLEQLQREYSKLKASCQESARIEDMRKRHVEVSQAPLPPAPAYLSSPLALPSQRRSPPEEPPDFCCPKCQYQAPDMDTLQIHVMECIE
UniProt P42224: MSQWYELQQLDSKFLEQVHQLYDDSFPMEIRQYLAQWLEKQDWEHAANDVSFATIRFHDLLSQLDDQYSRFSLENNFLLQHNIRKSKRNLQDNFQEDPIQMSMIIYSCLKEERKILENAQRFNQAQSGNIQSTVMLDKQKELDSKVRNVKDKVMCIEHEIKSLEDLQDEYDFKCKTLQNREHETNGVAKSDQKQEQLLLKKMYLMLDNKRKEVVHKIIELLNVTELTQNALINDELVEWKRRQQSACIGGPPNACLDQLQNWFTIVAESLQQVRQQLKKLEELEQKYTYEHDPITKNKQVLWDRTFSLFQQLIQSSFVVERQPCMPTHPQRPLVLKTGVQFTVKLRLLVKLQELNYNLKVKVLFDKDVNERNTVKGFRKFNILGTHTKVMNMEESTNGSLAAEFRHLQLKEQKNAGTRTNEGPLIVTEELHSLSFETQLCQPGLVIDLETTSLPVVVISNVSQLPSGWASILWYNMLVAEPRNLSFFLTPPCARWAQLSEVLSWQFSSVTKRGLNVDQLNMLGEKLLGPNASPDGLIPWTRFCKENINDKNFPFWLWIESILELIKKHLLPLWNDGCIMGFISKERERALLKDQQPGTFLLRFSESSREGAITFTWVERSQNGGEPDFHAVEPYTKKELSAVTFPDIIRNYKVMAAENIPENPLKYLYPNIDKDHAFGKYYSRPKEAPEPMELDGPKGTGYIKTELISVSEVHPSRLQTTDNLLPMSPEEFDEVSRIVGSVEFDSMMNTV

Biological target: T1, deubiquitinating enzyme cylindromatosis (CYLD) (human (endogenous in THP-1)) (UniProt Q9NQC7)
T1 sequence: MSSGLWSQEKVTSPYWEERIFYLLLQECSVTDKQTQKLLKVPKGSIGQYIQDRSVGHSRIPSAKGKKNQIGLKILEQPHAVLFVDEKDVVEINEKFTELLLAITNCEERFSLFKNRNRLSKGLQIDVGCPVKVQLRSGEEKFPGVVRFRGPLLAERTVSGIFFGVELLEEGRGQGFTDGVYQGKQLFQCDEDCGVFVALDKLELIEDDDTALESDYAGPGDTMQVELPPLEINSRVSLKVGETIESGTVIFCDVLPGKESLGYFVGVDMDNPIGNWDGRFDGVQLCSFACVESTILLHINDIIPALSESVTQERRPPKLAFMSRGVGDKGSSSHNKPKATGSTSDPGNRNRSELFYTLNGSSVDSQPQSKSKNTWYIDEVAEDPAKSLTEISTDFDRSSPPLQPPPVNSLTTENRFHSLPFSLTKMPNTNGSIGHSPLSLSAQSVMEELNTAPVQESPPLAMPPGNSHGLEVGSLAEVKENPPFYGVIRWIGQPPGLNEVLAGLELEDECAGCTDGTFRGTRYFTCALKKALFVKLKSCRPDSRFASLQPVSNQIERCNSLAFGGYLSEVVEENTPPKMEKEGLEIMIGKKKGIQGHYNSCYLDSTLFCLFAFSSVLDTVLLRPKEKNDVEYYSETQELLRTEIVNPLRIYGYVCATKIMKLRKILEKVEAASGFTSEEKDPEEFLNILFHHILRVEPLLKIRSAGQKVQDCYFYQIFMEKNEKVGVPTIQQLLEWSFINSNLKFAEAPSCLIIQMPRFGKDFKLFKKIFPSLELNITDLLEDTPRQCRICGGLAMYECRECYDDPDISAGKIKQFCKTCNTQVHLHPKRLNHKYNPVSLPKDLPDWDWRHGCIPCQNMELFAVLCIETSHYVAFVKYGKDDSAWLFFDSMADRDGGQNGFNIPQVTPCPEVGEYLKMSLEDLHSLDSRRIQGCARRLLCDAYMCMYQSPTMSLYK
Test: co-IP; immunoprecipitation with anti-CYLD antibody (1:100, 4°C overnight, Gamma Bind G Sepharose beads) from precleared lysates of IFN-γ/LPS-polarized (M1) THP-1 macrophages 2 h after infection with S. aureus MW2 (MOI 5:1); IgG as negative control; detection by Western blot

binding	Substance
binds	IKKγ/NEMO (from UniProt Q9Y6K9 1-419)
binds	STAT1 (from UniProt P42224 1-750)
